{"source": "PubChem BioAssay AID1259308 (NCATS, 2017)", "assay": "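Knock-downs that increase output of a recombinant reporter protein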 (primary screen)", "cells": "human HEK293 embryonic kidney cells stably expressing firefly luciferase (HEK-CMV-Luc2-Hygro)", "reagent": "single siRNA against human genes, 0.8 pmol siRNA per well", "duration": "72 h", "measured": "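Reporter luminescence and viable-cell signal on separate replicate plates, given as percent of non-targeting control and median/MAD z-scores, plus per-cell luciferase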", "direction": "total luciferase, z-score and total luciferase, % of control: higher = more reporter protein produced", "active means": "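An siRNA counts as active if its total luciferase robust z-score exceeds 3; genes with two or more such siRNAs out of three were retested with fresh siRNAs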", "calls": "active = raised luciferase; inactive = no rise", "note": "Here is a random part of about 59,000 reagents tested. About 1,510 of all reagents (2.6%) were called active. 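Calls use total luciferase alone and ignore viability, so some active siRNAs may act by altering cell number.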 A number with no mark means an inactive call. The numbers tell different reagents against one gene apart. Not all columns of the deposit are shown. Reagent sequences are not shown."}
The first 5 entries, to show the layout:
{"gene symbol":"MAPK9","reagent no.":1,"total luciferase, z-score":-0.749,"total luciferase, % of control":67}
{"gene symbol":"MAPK9","reagent no.":2,"total luciferase, z-score":-0.628,"total luciferase, % of control":69.4}
{"gene symbol":"MAPK9","reagent no.":3,"total luciferase, z-score":0.477,"total luciferase, % of control":91.4}
{"gene symbol":"EFR3A","reagent no.":1,"total luciferase, z-score":1.06,"total luciferase, % of control":103}
{"gene symbol":"EFR3A","reagent no.":2,"total luciferase, z-score":1.09,"total luciferase, % of control":103}

The list itself, repeating the preview:
{"gene symbol":"MAPK9","reagent no.":1,"total luciferase, z-score":-0.749,"total luciferase, % of control":67}
{"gene symbol":"MAPK9","reagent no.":2,"total luciferase, z-score":-0.628,"total luciferase, % of control":69.4}
{"gene symbol":"MAPK9","reagent no.":3,"total luciferase, z-score":0.477,"total luciferase, % of control":91.4}
{"gene symbol":"EFR3A","reagent no.":1,"total luciferase, z-score":1.06,"total luciferase, % of control":103}
{"gene symbol":"EFR3A","reagent no.":2,"total luciferase, z-score":1.09,"total luciferase, % of control":103}
{"gene symbol":"EFR3A","reagent no.":3,"total luciferase, z-score":2.12,"total luciferase, % of control":124}
{"gene symbol":"LOC644893","reagent no.":1,"total luciferase, z-score":-1.2,"total luciferase, % of control":58}
{"gene symbol":"LOC644893","reagent no.":2,"total luciferase, z-score":1.8,"total luciferase, % of control":118}
{"gene symbol":"LOC644893","reagent no.":3,"total luciferase, z-score":0.343,"total luciferase, % of control":88.7}
{"gene symbol":"MCC","reagent no.":1,"total luciferase, z-score":0.281,"total luciferase, % of control":87.5}
{"gene symbol":"MCC","reagent no.":2,"total luciferase, z-score":-0.628,"total luciferase, % of control":69.4}
{"gene symbol":"MCC","reagent no.":3,"total luciferase, z-score":0.661,"total luciferase, % of control":95}
{"gene symbol":"EYA4","reagent no.":1,"total luciferase, z-score":0.378,"total luciferase, % of control":89.4}
{"gene symbol":"EYA4","reagent no.":2,"total luciferase, z-score":-0.719,"total luciferase, % of control":67.6}
{"gene symbol":"EYA4","reagent no.":3,"total luciferase, z-score":0.744,"total luciferase, % of control":96.7}
{"gene symbol":"PSMC5","reagent no.":1,"total luciferase, z-score":-0.389,"total luciferase, % of control":74.2}
{"gene symbol":"PSMC5","reagent no.":2,"total luciferase, z-score":0.0885,"total luciferase, % of control":83.6}
{"gene symbol":"PSMC5","reagent no.":3,"total luciferase, z-score":0.514,"total luciferase, % of control":92.1}
{"gene symbol":"GBP4","reagent no.":1,"total luciferase, z-score":1.48,"total luciferase, % of control":111}
{"gene symbol":"GBP4","reagent no.":2,"total luciferase, z-score":-0.331,"total luciferase, % of control":75.3}
{"gene symbol":"GBP4","reagent no.":3,"total luciferase, z-score":0.556,"total luciferase, % of control":92.9}
{"gene symbol":"WARS1","reagent no.":1,"total luciferase, z-score":0.291,"total luciferase, % of control":87.7}
{"gene symbol":"WARS1","reagent no.":2,"total luciferase, z-score":0.795,"total luciferase, % of control":97.7}
{"gene symbol":"WARS1","reagent no.":3,"total luciferase, z-score":-1.2,"total luciferase, % of control":57.9}
{"gene symbol":"HMGN1","reagent no.":1,"total luciferase, z-score":-0.221,"total luciferase, % of control":77.5}
{"gene symbol":"HMGN1","reagent no.":2,"total luciferase, z-score":2.17,"total luciferase, % of control":125}
{"gene symbol":"HMGN1","reagent no.":3,"total luciferase, z-score":-0.164,"total luciferase, % of control":78.6}
{"gene symbol":"SALL4","reagent no.":1,"total luciferase, z-score":-2.48,"total luciferase, % of control":32.6}
{"gene symbol":"SALL4","reagent no.":2,"total luciferase, z-score":-1.03,"total luciferase, % of control":61.3}
{"gene symbol":"SALL4","reagent no.":3,"total luciferase, z-score":-0.222,"total luciferase, % of control":77.5}
{"gene symbol":"YES1","reagent no.":1,"total luciferase, z-score":1.56,"total luciferase, % of control":113}
{"gene symbol":"YES1","reagent no.":2,"total luciferase, z-score":-1.41,"total luciferase, % of control":53.9}
{"gene symbol":"YES1","reagent no.":3,"total luciferase, z-score":-0.562,"total luciferase, % of control":70.7}
{"gene symbol":"POLR1A","reagent no.":1,"total luciferase, z-score":0.273,"total luciferase, % of control":87.3}
{"gene symbol":"POLR1A","reagent no.":2,"total luciferase, z-score":1.71,"total luciferase, % of control":116}
{"gene symbol":"POLR1A","reagent no.":3,"total luciferase, z-score":-1.59,"total luciferase, % of control":50.3}
{"gene symbol":"CRTC2","reagent no.":1,"total luciferase, z-score":1.72,"total luciferase, % of control":116}
{"gene symbol":"CRTC2","reagent no.":2,"total luciferase, z-score":-1.29,"total luciferase, % of control":56.2}
{"gene symbol":"CRTC2","reagent no.":3,"total luciferase, z-score":0.624,"total luciferase, % of control":94.3}
{"gene symbol":"RANBP10","reagent no.":1,"total luciferase, z-score":1.94,"total luciferase, % of control":120}
{"gene symbol":"RANBP10","reagent no.":2,"total luciferase, z-score":0.319,"total luciferase, % of control":88.2}
{"gene symbol":"RANBP10","reagent no.":3,"total luciferase, z-score":2.81,"total luciferase, % of control":138}
